Values of other authors, collected in patent US12303497B2, “Anti-androgens for the treatment of metastatic castration-sensitive prostate cancer” (priority 2019, dated 2025).
Entries after “also recorded” stand apart in the source; their conditions may differ. For at least one compound, name, drawing or mass did not settle the structure.

Legend:
[1] = tested on: prostate cancer cells rendered castration resistant via overexpression of AR; settings: literature; cited from earlier work
W741L/W741C AR mutants = settings: literature; cited from earlier work

CC(O)(CS(=O)(=O)c1ccc(F)cc1)C(=O)Nc1ccc(C#N)c(C(F)(F)F)c1 (centres unmarked) [bicalutamide]
Agonist activity in the context of AR overexpression [1]: mixed antagonist/agonist profile; also recorded: partial agonist activity | Activity in W741L/W741C AR mutants (W741L/W741C AR mutants): AR agonists
